Hit rate of the full screen: of about 400,000 compounds, about 5,500 (1.4%) were called active. The inconclusive results got no clear call from the source; some entries with a clear call stand among them for comparison. Calls come from the whole dose curve; as a rule, active = well fitted cell-killing curve with a large enough effect; inconclusive = small, poorly fitted or top-dose-only effect, or effect the other way; inactive = flat fitted curve, though single readings scatter. Potencies of inconclusive entries are doubtful fits and often do not repeat.
test: qHTS assay for MDR1-selective chemotherapeutics: Primary screen using the parental adenocarcinoma cell KB-3-1; conditions: KB-3-1 viability, CellTiter-Glo ATP luminescence, 72 h; activity change, negative = cytotoxic: at 46.1 µM (top of the series); note: nearly all actives have a fitted effect of over 60% in size
Procedure, shortened: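 Cytotoxicity measured as CellTiter-Glo luminescence after 72 h at 37 C. Compound titrations were pinned onto drug-naive KB-3-1 parental adenocarcinoma cells grown in DMEM with 10% FBS, and normalized data fitted to concentration-response curves.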
% is set by controls: 0 for no effect and ±100 for the full control effect; potency is the fitted concentration of half-maximal effect.

| SMILES | Potency | activity change, negative = cytotoxic |
| --- | --- | --- |
| O=C(c1cc(COc2ccc3ncccc3c2)on1)N1CCC(O)CC1 | inconclusive: 23.1 µM [cytotoxic, partial curve] | – |
| O=C(N=C1SC2CS(=O)(=O)CC2N1c1cc(Cl)ccc1Cl)C1CC1 (stereo not drawn) | inconclusive: 23.1 µM [cytotoxic, single point] | – |
| CC(C)CNC(=O)COc1cccc(C(=O)NCc2ccccc2)c1 | – | inactive: 23.3% |
| COc1ccc(CCn2c(=N)c(C(=O)NC3CCCC3)cc3c(=O)n4ccccc4nc32)cc1OC | inconclusive: 20.6 µM [cytotoxic, partial curve, poor fit] | – |
| COCCCNC(=O)C[C@H]1C[C@H](C(=O)N2CCOCC2)[C@@]2(C)c3[nH]c4cc(-c5ccco5)ccc4c3CCN2C1=O | inconclusive: 0.0731 µM [rising, full curve] | – |
| COc1ccc2c(c1)c(C(=O)OCCN(C)C)c(C)n2C | inconclusive: 29.1 µM [cytotoxic, single point] | – |
| COc1ccc(S(=O)(=O)c2c(Nc3ccc(F)cc3)sc(C(=O)c3ccc(C)cc3C)c2N)cc1 | inconclusive: 16.4 µM [cytotoxic, single point] | – |
| CSc1nc(-c2ccc(C)cc2)nc(C(Cl)Cl)n1 | active: 7.31 µM | – |
| CCOC(=O)CC1(C)Sc2ccccc2N1S(=O)(=O)c1ccc(C)cc1 (stereo not drawn) | inconclusive: 29.1 µM [cytotoxic, single point] | – |
| NS(=O)(=O)c1ccc(NC(=S)NC(=O)c2ccc(Br)o2)cc1 | – | inactive: -1.04% |
| CC1CCCN(S(=O)(=O)c2cc(C(=O)NCCc3ccc(S(N)(=O)=O)cc3)ccc2Cl)C1 (stereo not drawn) | inconclusive: 8.2 µM [cytotoxic, partial curve, poor fit] | – |
| CCOC(=O)CSc1nc(-c2ccccn2)ncc1OC | – | inactive: 8.12% |
| CS(=O)(=O)c1ccc(NC(=O)C2CCCN(C(=O)c3ccc(Cl)cc3)C2)cc1 (stereo not drawn) | – | inactive: -16.1% |
| O=C(c1nnsc1S(=O)(=O)c1ccc(Cl)cc1)N1CCOCC1 | inconclusive: 18.4 µM [cytotoxic, single point] | – |
| Cn1cnnc1SCC(=O)Nc1cc(C(=O)O)cc(C(=O)O)c1 | – | inactive: 14.1% |
| COc1ccc(-c2ccc(CNc3ccc4[nH]c(=O)[nH]c4c3)o2)cc1Cl | – | inactive: -2.72% |
| O=C(NCC(c1cccs1)N1CCOCC1)c1cc(F)cc(F)c1 (stereo not drawn) | inconclusive: 29.1 µM [cytotoxic, single point] | – |
| O=C(COC(=O)C1CCN(S(=O)(=O)c2ccc3c(c2)OCCO3)CC1)NC1CCCCC1 | – | inactive: 2.69% |
| O=C(NCCCN1CCCC1)c1cc2c(Cl)nc3ccccc3c2s1 | inconclusive: 16.4 µM [cytotoxic, partial curve] | – |
| CC(=O)Nc1cccc(OCC(=O)/C=C2\N(C)c3ccccc3C2(C)C)c1 | inconclusive: 23.1 µM [cytotoxic, single point] | – |
| Cc1cc(C)nc(-n2nc(C)cc2Nc2ccccc2)n1 | inconclusive: 29.1 µM [cytotoxic, single point] | – |
| CCOc1ccc2nc(-c3ccccc3)[nH]c2c1 | inconclusive: 3.26 µM [cytotoxic, partial curve, poor fit] | – |
| Cn1c(CCN2CCCCC2)nc2cc(NS(=O)(=O)c3ccc(F)cc3)ccc21 | inconclusive: 29.1 µM [cytotoxic, single point] | – |
| COC(=O)c1ccc(COc2ccccc2/C=N/NS(=O)(=O)c2ccccc2)cc1 | inconclusive: 35.5 µM [cytotoxic, single point] | – |
| COc1ccc(S(=O)(=O)N2CCCCC2)cc1NC(=O)c1cc([N+](=O)[O-])ccc1N1CCOCC1 | inconclusive: 20.6 µM [rising, single point] | – |

| SMILES | Potency | activity change, negative = cytotoxic |
| --- | --- | --- |
| OCCN1CCN(c2nc(-c3ccccc3)nc3c2oc2ccccc23)CC1 | inconclusive: 32.6 µM [cytotoxic, single point] | – |
| CC(=O)Nc1ccc(S(=O)(=O)Nc2ccc(-c3ccc4nnc(C)n4n3)cc2)cc1 | inconclusive: 25.9 µM [rising, partial curve, poor fit] | – |
| O=C(Nc1ccc(Br)cn1)c1ccc2ccccc2c1 | inconclusive: 25.9 µM [cytotoxic, single point] | – |
| CCCC[n+]1c(/C=C/c2ccc(N(C)C)cc2)sc2ccccc21 | active: 1.84 µM | – |
| CCOC(=O)CSc1nc2ccc(NC(=O)c3ccc(F)cc3)cc2s1 | – | inactive: 18.5% |
| CN(C)c1ccc(/C=C/C(=O)c2ccc(O)cc2)cc1[N+](=O)[O-] | active: 20.6 µM | – |
| Cc1csc(NC(=O)C2CCCCC2)n1 | inconclusive: 25.9 µM [rising, single point] | – |
| COc1cccc(C(=O)c2sc(NC(C)C)nc2N)c1 | active: 16.4 µM | – |
| Cc1[nH]c2ccc(F)cc2c(=O)c1SC(F)(F)C(F)F | inconclusive: 23.1 µM [cytotoxic, single point] | – |
| CC1(C(=O)NCc2ccccc2Br)CCN1Cc1ccccc1OC(F)F (stereo not drawn) | – | inactive: -14.5% |
| Cc1ccccc1-c1nc(CN2CCC(C(=O)NCCCN3CCOCC3)CC2)c(C)o1 | – | inactive: 12.6% |
| Nc1ccc(Cn2ccc3c4c(N)nc(N)nc4ccc32)cc1 | inconclusive: 0.366 µM [cytotoxic, full curve, poor fit] | – |
| O=C(NCc1ccccn1)c1ccccc1-c1ccccc1 | inconclusive: 29.1 µM [rising, single point] | – |
| O=c1cc(Nc2ccc3c(c2)OCCO3)[nH]c(=O)n1C1CCCCC1 | inconclusive: 29.1 µM [cytotoxic, single point] | – |
| COc1ccc(N/C=C\C(=O)c2ccc3c(c2)OCO3)cc1 | inconclusive: 18.4 µM [cytotoxic, partial curve] | – |
| CCN(CC)CCn1c(=N)n(CC(=O)c2ccc(C)cc2)c2ccccc21 | inconclusive: 25.9 µM [cytotoxic, single point] | – |
| O=C1CCCCC(=O)N(c2ccccc2)c2ccccc21 | – | inactive: -5.44% |
| COC(=O)c1ccccc1NC(=S)NC(=O)c1cccc2ccccc12 | – | inactive: 8.79% |
| Cc1ccc(S(=O)(=O)N(C)C[C@@H]2OCc3cnnn3CCCC(=O)N([C@H](C)CO)C[C@@H]2C)cc1 | – | inactive: 3.43% |
| COc1ccc(NC(=O)NCc2ccccn2)c(OC)c1 | – | inactive: 8.86% |
| NC(=O)CSc1nnc2ccc(-c3ccc(Cl)cc3)nn12 | inconclusive: 29.1 µM [rising, single point] | – |
| Cc1ccc(C)c2c1CCCC2=O | inconclusive: 16.4 µM [rising, partial curve] | – |
| C=CCNCCCOc1ccc(C(C)(C)c2ccccc2)cc1 | inconclusive: 32.6 µM [cytotoxic, single point] | – |
| CN(C)S(=O)(=O)c1cc(NC(=O)COC(=O)CC2CC3CCC2C3)ccc1Cl (stereo not drawn) | – | inconclusive: -44.4% |
| CC1(C(=O)NC(=S)NNC(=O)c2ccncc2)CCCCC1 | inconclusive: 18.4 µM [cytotoxic, single point] | – |

In the list so far, these have bromine:

| SMILES | Potency | activity change, negative = cytotoxic |
| --- | --- | --- |
| NS(=O)(=O)c1ccc(NC(=S)NC(=O)c2ccc(Br)o2)cc1 | – | inactive: -1.04% |
| O=C(Nc1ccc(Br)cn1)c1ccc2ccccc2c1 | inconclusive: 25.9 µM [cytotoxic, single point] | – |
| CC1(C(=O)NCc2ccccc2Br)CCN1Cc1ccccc1OC(F)F (stereo not drawn) | – | inactive: -14.5% |

The listing continues.

| SMILES | Potency | activity change, negative = cytotoxic |
| --- | --- | --- |
| Cc1nn(C)c(=S)n1-c1ccc(Cl)cc1 | – | inactive: 0.876% |
| COc1ccccc1NC(=O)CC(=O)c1ccccc1 | – | inactive: 21.4% |
| CCc1nnc(NC(=O)c2ccc(S(=O)(=O)N(C)Cc3ccccc3)cc2)o1 | inconclusive: 25.9 µM [cytotoxic, single point] | – |
| C/C(=N\N1CCN(Cc2ccc(Cl)cc2)CC1)c1ccc([N+](=O)[O-])cc1 | inconclusive: 13 µM [cytotoxic, partial curve] | – |
| COc1ccccc1NC(=O)NC1(C(=O)N2CCOCC2)CCCCC1 | – | inactive: 23.2% |
| FC(F)(F)c1ccccc1Cc1c(C2CCCCC2)nc2ccc(Br)cn12 | – | inconclusive: -51.1% |
| CCc1ccc2[nH]c3nc(N/N=C/c4ccc(O)cc4O)nnc3c2c1 | inconclusive: 9.2 µM [cytotoxic, partial curve] | – |
| Cn1ccnc1C(=O)C1CCCN(Cc2cn[nH]c2-c2ccc(-c3ccccc3)cc2)C1 (stereo not drawn) | inconclusive: 23.1 µM [cytotoxic, single point] | – |
| Cc1c(NC(=O)COC(=O)c2cccn2C)c(=O)n(-c2ccccc2)n1C | – | inactive: 14.3% |
| O=C(CN1CCN(Cc2ccccc2)CC1)NCc1ccccc1Cl | – | inactive: 11.4% |
| COc1ccc(NS(=O)(=O)c2cc(NC(=O)C3CCCO3)ccc2N2CCCCC2)cc1 (stereo not drawn) | inconclusive: 23.1 µM [cytotoxic, single point] | – |
| Cc1nc2c(-c3ccc(F)cc3)c(C)nn2c(C)c1CCC(=O)N1CCC(Cc2ccccc2)CC1 | inconclusive: 29.1 µM [cytotoxic, single point] | – |
| CC(Oc1ccccc1Cl)C(=O)N1CCOCC1 (stereo not drawn) | – | inactive: 17.6% |
| CCc1ccccc1NC(=O)CN1CCN(C(=O)CNC(=O)Cc2cccc3ccccc23)CC1 | inconclusive: 16.4 µM [cytotoxic, single point] | – |
| O=C(CCN1CCN(c2ccccc2)CC1)c1ccc(Br)cc1 | – | inactive: 4.01% |
| CCc1ccccc1NC(=O)Nc1cc(C(=O)NCc2ccc(C(C)C)cc2)ccc1N1CCCC1 | – | inactive: -32.1% |
| CC(C)CNC(=O)C1(C)CCN1C(=O)c1ccc(C(C)(C)C)cc1 (stereo not drawn) | – | inactive: 0% |
| CC(=O)c1c(C)n(CC(=O)NCc2ccc3c(c2)OCO3)c2ccccc12 | active: 16.4 µM | – |
| CCCCCCn1c(=O)[nH]c2nc3cc(N)c(C)cc3nc2c1=O | inconclusive: 29.1 µM [cytotoxic, single point] | – |
| CC(=O)C1=C(O)C(=O)N(c2cccc(Br)c2)C1c1ccccc1Cl (stereo not drawn) | inconclusive: 1.16 µM [rising, full curve] | – |
| COc1ccccc1NC(=O)C1=C(C)N(c2ccccc2)C(=S)NC1c1cccc(C(F)(F)F)c1 (stereo not drawn) | inconclusive: 29.1 µM [cytotoxic, single point] | – |
| CC(C)CCNC(=O)COc1ccc(C(=O)c2ccccc2)cc1 | – | inactive: -20.5% |
| Cc1nn(C)c(C(=O)NC(=S)Nc2ccccc2Br)c1Cl | inconclusive: 20.6 µM [cytotoxic, partial curve, poor fit] | – |

Source: PubChem BioAssay AID1347075 (National Center for Advancing Translational Sciences (NCATS), 2019)
